Assay results taken from PubChem BioAssay AID651768 (National Center for Advancing Translational Sciences (NCATS), 2012).
The campaign covered roughly 360,000 compounds. About 1,700 (0.47%) were called active. The inconclusive results got no clear call from the source; some entries with a clear call stand among them for comparison. The call rests on the fitted dose curve; in most records, active means well fitted inhibition curve with a large enough effect; inconclusive means small, poorly fitted or top-dose-only effect; inactive means no such curve, though single readings can be large or run the other way. Where the call is inconclusive, the potency comes from a doubtful curve fit.

The chains behind the UniProt entries cited, without tags or fusion partners.
UniProt Q14191, whole entry, looked up: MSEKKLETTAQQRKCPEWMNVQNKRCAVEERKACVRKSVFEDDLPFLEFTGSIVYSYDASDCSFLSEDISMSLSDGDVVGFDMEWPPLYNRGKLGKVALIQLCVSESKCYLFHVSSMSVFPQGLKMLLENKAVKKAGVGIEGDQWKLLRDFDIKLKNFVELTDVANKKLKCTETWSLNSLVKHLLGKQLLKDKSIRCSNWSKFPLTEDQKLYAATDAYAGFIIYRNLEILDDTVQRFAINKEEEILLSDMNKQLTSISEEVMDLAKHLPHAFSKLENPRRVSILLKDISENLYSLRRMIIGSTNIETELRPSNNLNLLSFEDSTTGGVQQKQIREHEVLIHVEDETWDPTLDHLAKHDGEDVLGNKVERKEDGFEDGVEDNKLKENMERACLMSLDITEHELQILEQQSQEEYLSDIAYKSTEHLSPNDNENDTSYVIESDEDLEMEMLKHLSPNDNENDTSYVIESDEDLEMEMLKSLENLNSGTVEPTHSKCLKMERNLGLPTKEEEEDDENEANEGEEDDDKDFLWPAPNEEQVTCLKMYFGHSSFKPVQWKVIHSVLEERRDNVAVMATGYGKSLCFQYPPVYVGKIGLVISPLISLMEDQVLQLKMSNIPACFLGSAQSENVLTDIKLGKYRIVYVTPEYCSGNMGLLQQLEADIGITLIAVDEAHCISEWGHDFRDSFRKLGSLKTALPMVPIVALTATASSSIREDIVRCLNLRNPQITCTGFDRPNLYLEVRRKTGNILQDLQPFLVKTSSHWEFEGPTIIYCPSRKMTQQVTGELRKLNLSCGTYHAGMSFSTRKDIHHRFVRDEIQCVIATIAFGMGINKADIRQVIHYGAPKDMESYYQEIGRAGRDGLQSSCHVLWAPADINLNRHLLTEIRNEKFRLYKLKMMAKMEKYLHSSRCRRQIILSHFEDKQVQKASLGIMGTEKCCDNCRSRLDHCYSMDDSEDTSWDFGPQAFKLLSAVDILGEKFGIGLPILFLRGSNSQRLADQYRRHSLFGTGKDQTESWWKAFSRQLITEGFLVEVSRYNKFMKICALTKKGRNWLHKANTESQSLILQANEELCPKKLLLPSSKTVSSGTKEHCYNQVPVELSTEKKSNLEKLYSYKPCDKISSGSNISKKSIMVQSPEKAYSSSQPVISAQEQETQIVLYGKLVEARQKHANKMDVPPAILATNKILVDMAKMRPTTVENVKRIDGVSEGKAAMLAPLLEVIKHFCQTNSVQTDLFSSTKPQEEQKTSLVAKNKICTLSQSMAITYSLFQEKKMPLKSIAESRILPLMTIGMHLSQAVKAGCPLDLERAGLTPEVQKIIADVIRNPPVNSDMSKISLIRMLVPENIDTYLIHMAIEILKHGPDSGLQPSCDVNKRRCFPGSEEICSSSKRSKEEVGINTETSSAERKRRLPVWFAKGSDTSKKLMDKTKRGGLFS

target: Bifunctional 3'-5' exonuclease/ATP-dependent helicase WRN (Homo sapiens) (UniProt Q14191); experiment: qHTS for Inhibitors of WRN Helicase; details: WRN helicase unwinding, fluorescent forked duplex, kinetic; activity change, negative = inhibition: at 114 µM (top of the series) unless noted; further: nearly all actives have a fitted effect of over 55% in size
In short: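 Screening of the MLSMR collection measured strand separation of a quenched forked DNA duplex (100 nM) by 20 nM WRN with 2 mM ATP, all final. Compounds were preincubated with enzyme 15 min at room temperature.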
On the % scale 0 is the no-effect control and ±100 the full control effect; potency means the concentration at half of the fitted maximal effect.

SMILES	Potency	activity change, negative = inhibition
COc1cccc(/C=N\NC(=O)Cn2nnc3ccccc32)c1O	inconclusive: 70.8 µM [inhibitor, single point]	
COc1cc(/C=C/c2ccc(O)cc2)cc(OC)c1	inactive	
O=C(CSc1nc2nn(-c3ccccc3)c(=O)c-2c2n1CCCCC2)c1ccc(O)c(O)c1	active: 2.82 µM	
CC(=O)c1cccc(-n2c(CCC(=O)O)ccc2-c2cccs2)c1	inconclusive: 56.2 µM [inhibitor, partial curve]	
O=C(N/N=C/c1ccc(Br)s1)c1cccc([N+](=O)[O-])c1	inconclusive: 10 µM [inhibitor, partial curve]	
Cc1ccc(N=C2NC(=O)/C(=C/C=C/c3ccco3)S2)cc1	active: 35.5 µM	
CCN(CC)CCC(C)OC(c1ccccc1)c1ccccc1 (centres undefined)	inactive	
Nc1ncc(Br)cc1N=Cc1ccccc1	inconclusive: 100 µM [inhibitor, partial curve]	
Fc1cccc2sc(Nc3nnc(-c4ccco4)o3)nc12	inconclusive: 63.1 µM [inhibitor, partial curve, poor fit]	
CCCCN(CC)C(=O)/C=C/c1cccc([N+](=O)[O-])c1	inactive	
CC1(C)CC(=O)C2=C(C1)OC1=C(C(=O)CC(C)(C)C1)C2c1ccc(O)cc1O	inconclusive: 56.2 µM [inhibitor, partial curve]	
O=C(COC(=O)c1cccs1)NCc1ccco1	inconclusive: 26.7 µM [inhibitor, partial curve]	
CCOC(=O)N1CCN(C(=O)C2CCN(C(=O)c3ccccc3C)CC2)CC1	active: 20 µM	
O=C(CSC1CC(=O)N(CCc2ccccc2)C1=O)Nc1cccc(Cl)c1 (centres undefined)	inconclusive: 39.8 µM [inhibitor, partial curve]	
O=C1CSC(=S)N1/N=C/c1ccc(O)c([N+](=O)[O-])c1	active: 79.4 µM	
C=CCN(CC=C)CC(=O)Nn1c(C)ccc1C	inconclusive: 6.31 µM [inhibitor, full curve, poor fit]	
COc1cccc(C(=O)NC2CC3CCCC(C2)N3CC(=O)Nc2ccccc2)c1 (centres undefined)	inconclusive: 50.1 µM [inhibitor, partial curve]	
Cc1nc(C(Cl)(Cl)Cl)nc2[nH]ccc(=O)c12	inconclusive: 89.1 µM [inhibitor, single point]	
NC(=O)CC(O)c1cccc(Cl)c1 (centres undefined)	inactive	
CCOC(=O)c1sc(N=NC2=C(O)CCCC2=O)c(C(=O)OCC)c1C	inconclusive: 28.2 µM [inhibitor, partial curve, poor fit]	
O=C(C1CC(=O)N(c2ccc3c(c2)OCCO3)C1)N1CCN(c2ccccc2)CC1 (centres undefined)	inconclusive: 39.8 µM [inhibitor, single point]	
Cc1ccc(SCC2=NN(c3nc(C)cc(C)n3)C(=O)C2)cc1	inconclusive: 70.8 µM [inhibitor, single point]	
CCOc1cc(/C=C(\C#N)c2[nH]nc(N)c2C#N)ccc1O	inactive	

Part of the list above, as labelled records:
O=C1CSC(=S)N1/N=C/c1ccc(O)c([N+](=O)[O-])c1
  Potency: active: 79.4 µM
C=CCN(CC=C)CC(=O)Nn1c(C)ccc1C
  Potency: inconclusive: 6.31 µM [inhibitor, full curve, poor fit]
COc1cccc(C(=O)NC2CC3CCCC(C2)N3CC(=O)Nc2ccccc2)c1 (centres undefined)
  Potency: inconclusive: 50.1 µM [inhibitor, partial curve]
Cc1nc(C(Cl)(Cl)Cl)nc2[nH]ccc(=O)c12
  Potency: inconclusive: 89.1 µM [inhibitor, single point]

Following part

SMILES	Potency	activity change, negative = inhibition
Cc1nc(-c2noc(-c3ccc(Cl)cc3)n2)c(C(F)(F)F)o1	inconclusive: 3.55 µM [inhibitor, full curve, poor fit]	
Cc1ccc2nc(NC(=O)CCCC(=O)O)sc2c1	inactive	
CCc1nnc(NC(=O)c2nc(S(=O)(=O)Cc3cccc(C)c3)ncc2Cl)s1	inconclusive: 22.4 µM [inhibitor, full curve, poor fit]	
O=C(Nc1cc(Sc2ccccn2)cc([N+](=O)[O-])c1)c1ccc([N+](=O)[O-])cc1	active: 31.6 µM	
O=C1C=CC(=O)N1c1ccc(OC(F)F)cc1	active: 31.6 µM	
O=C(O)c1cc(O)c2c(c1)C(=O)c1cccc(O)c1C2=O	active: 26.7 µM	
CCCNC(=O)c1nnsc1S(=O)c1ccc(Cl)cc1 (centres undefined)	active: 20 µM	
N#CC(C#N)=C1C=CC=CN1/C(=C\c1ccco1)C(=O)c1ccc(Br)cc1	active: 56.2 µM	
O=C(COC(=O)CCC(NC(=O)OCc1ccccc1)C(=O)OCC(=O)Nc1ccccc1)Nc1ccccc1 (centres undefined)	inconclusive: 20 µM [inhibitor, partial curve]	
Cc1ccn2cc(-c3ccc(O)c(O)c3)nc2c1	active: 44.7 µM	
O=C(CSc1nc(NS(=O)(=O)c2ccccc2)cc(=O)[nH]1)Nc1ccccc1Cl	inactive	
COc1ccc(C(CC(=O)N2CCCC(C)C2)c2c(OC)cc(OC)c3c(-c4ccccc4)cc(=O)oc23)cc1 (centres undefined)	inconclusive: 56.2 µM [inhibitor, partial curve]	
O=C(O)c1cccc(-n2cccc2/C=N/O)c1	inconclusive: 26.7 µM [inhibitor, partial curve]	
N#C/C(=C\c1ccc(N2CCCCC2)o1)C(=O)Nc1cccc(Br)c1	active: 89.1 µM	
O=C1/C(=C\c2ccccn2)SC(=S)N1c1ccc(S(=O)(=O)Nc2nccs2)cc1	inconclusive: 56.2 µM [inhibitor, partial curve]	
CC1(C)CC(=O)C2=C(C1)c1c(ccc3ccccc13)NC2c1cc([N+](=O)[O-])cc([N+](=O)[O-])c1O (centres undefined)	inconclusive: 31.6 µM [inhibitor, single point]	
Cc1sc(NC(=O)c2sc3nc4c(C)cccc4cc3c2N)c(C#N)c1C	inconclusive: 79.4 µM [inhibitor, partial curve]	
CC[C@H](C)/C=C/C1=CC2=C(Cl)C(=O)[C@@]3(C)OC(=O)C(C(=O)[C@H](C)[C@@H](C)O)=C3C2=CO1	inconclusive: 50.1 µM [inhibitor, partial curve]	
Cc1ccc(-c2c3c(nc4sc(C(N)=O)c(N)c24)CCCC3)o1	inconclusive: 56.2 µM [inhibitor, partial curve, poor fit]	
CN(C)c1cccc(C(=O)OC(C(=O)Nc2ccc([N+](=O)[O-])cc2Br)c2ccccc2)c1 (centres undefined)	inconclusive: 12.6 µM [inhibitor, partial curve]	
CCOC(=O)C1=C(C)N(C[C@@H]2CC[C@@H](Cc3ccc(-c4ccccc4)cc3)O2)C(=O)NC1c1ccc(SCc2ccco2)c([N+](=O)[O-])c1 (some centres undefined)	inconclusive: 56.2 µM [inhibitor, partial curve]	
O=c1cc(N2CCCCC2)c(-c2ccccc2)nn1Cc1ccccc1Cl	inconclusive: 89.1 µM [inhibitor, single point]	
COc1ccc(/C=C2/C(=O)N(c3ccccc3)N=C2C)cc1Br		inactive: -17.3% [at 11.6 µM]

SMILES	Potency	activity change, negative = inhibition
Fc1ccc(C[n+]2csc3ccccc32)cc1	active: 56.2 µM	
CCS(=O)(=O)C1=NN2C(=N)/C(=C\c3ccc(SCc4ccco4)o3)C(=O)N=C2S1	active: 56.2 µM	
CCOC(=O)c1c(C)[nH]c(C)c1S(=O)(=O)N1CCN(c2cccc(C)c2)C(C)C1 (centres undefined)	inactive	
Oc1ccc(N=C/C=C/c2cccc(Br)c2)cc1-c1nc2ccccc2s1	inconclusive: 17.8 µM [inhibitor, full curve]	
NC1=NN=C(c2ccc3c(c2)OCCO3)CS1	inconclusive: 79.4 µM [inhibitor, single point]	
Cc1cccc(Oc2sc(C(=O)c3ccccc3)c(N)c2C#N)c1		inconclusive: -39.3% [inhibitor] [at 57.1 µM]
O=C(O)c1ccccc1NS(=O)(=O)c1ccc(N/N=C/c2ccc(O)c(O)c2)c([N+](=O)[O-])c1	active: 11.2 µM	
Cc1cccc(NC(=O)CCc2nc3sc4c(c3c(=O)[nH]2)CCCC4)n1	inconclusive: 56.2 µM [inhibitor, partial curve]	
Cc1cc(C)c(S(=O)(=O)/N=C2\C=C(Nc3ccc(C(=O)O)cc3)C(=O)c3ccccc32)c(C)c1	active: 89.1 µM	
CC(C)OC(=O)c1c(NS(=O)(=O)c2ccccc2)sc2c1CCCC2	inconclusive: 70.8 µM [inhibitor, single point]	
Cc1coc2c(C)c3oc(=O)c(CCC(=O)N[C@@H](C)C(=O)N[C@@H](Cc4ccccc4)C(=O)O)c(C)c3cc12	inactive	
CCOC(=O)COc1ccc(/C=C/[N+](=O)[O-])c(OCC(=O)OCC)c1	inconclusive: 56.2 µM [inhibitor, partial curve]	
O=C1/C(=C\c2cccs2)Sc2ccc3ccccc3c21	inconclusive: 22.4 µM [inhibitor, single point]	
Cc1ccc(C)c(OC(C)C(=O)Nc2ccc(S(=O)(=O)Nc3nccs3)cc2)c1 (centres undefined)	inconclusive: 355 µM [inhibitor, partial curve]	
CC(C)c1ccc(/C=c2\sc3n(c2=O)C(N)=C(C#N)C(c2ccc(C(C)C)cc2)C=3C(N)=O)cc1 (centres undefined)	inactive	
CCn1c(CC(=O)Nc2ccccc2OC)nnc1SCC(=O)Nc1ccccc1F	inactive	
Cc1[nH]c2ccccc2c1/C=N/NC(=O)c1cccc(S(=O)(=O)Nc2ccccc2Cl)c1	inconclusive: 22.4 µM [inhibitor, single point]	
O=C1CSC(=S)N1/N=C/c1ccc(O)c(O)c1O	active: 10 µM	
O=C(COc1cccc2cccnc12)N1CCc2ccccc21	inconclusive: 39.8 µM [inhibitor, single point]	
O=C(c1cc(-c2ccco2)nc2ccccc12)N1CCCC(C(F)(F)F)C1 (centres undefined)	inconclusive: 79.4 µM [inhibitor, partial curve]	
COc1cc(SC)ccc1C(=O)NNC(=O)c1cc(C)oc1C	inactive	
CCc1ccc(C=C2SC(=S)N(CCCC(=O)Nc3ccc(C(=O)O)cc3)C2=O)cc1	inactive	
COc1cccc2c1C(=O)c1c(O)c3c(c(O)c1C2=O)C[C@@](O)(C(=O)CO)C[C@@H]3O[C@H]1C[C@H](N)[C@H](O)[C@H](C)O1	active: 56.2 µM	
